Source: the supplement of paper PMC10338343
± gives the standard deviation. The list shows a part of the results, in another mix than the full data. The uncertainty is large for many entries. Some of the results follow.

Columns and labels:
[1] = test system: MILI (PIWIL2) piRISC loaded with L1MC piRNA (26 nt); assay: pre-steady-state target cleavage rate (min^-1); higher = faster piRNA-guided slicing of the target; conditions: guide: L1MC piRNA 5'p-UAACUAAAUACUAUGCAAGCUGUAGG
In short: (§1)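 Cleave-'n-Seq: a transcribed, DNA-blocked target RNA library (0.1 nM) was mixed with 1 nM active affinity-purified piRISC carrying one synthetic guide, with or without 500 nM GTSF1 partner protein, in HEPES–potassium acetate buffer at 33 °C for 0–8 or 0–960 min. Uncleaved targets were sequenced and normalised to depth and to weakly complementary targets. Three trials were pooled, and k3 was capped at 0.0001 min^-1. The pre-steady-state cleavage rate came from a burst-and-steady-state fit.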

[2] = test system: EfPiwi piRISC loaded with L1MC piRNA (26 nt); assay: pre-steady-state target cleavage rate (min^-1); guide: L1MC piRNA 5'p-UAACUAAAUACUAUGCAAGCUGUAGG; MIWI and MILI are mouse PIWI proteins and EfPiwi is from a freshwater sponge; tags in brackets are library labels; higher = faster piRNA-guided slicing of the target
In short: as §1

[3] = auxiliary factor: none (no GTSF1)
[4] = auxiliary factor: 500 nM Ephydatia muelleri Gtsf1
[5] = auxiliary factor: none (no Gtsf1)
[6] = auxiliary factor: 500 nM mouse GTSF1

Sequence | pre-steady-state target cleavage rate [1, 3] | pre-steady-state target cleavage rate [2, 4] | pre-steady-state target cleavage rate [2, 5] | pre-steady-state target cleavage rate [1, 6]
UCCUGGAUCAGCUUGCAUAGUUUUUACUUA | 0.00102 ± 0.006 | 0.00064 ± 0.007 | 0.00017 ± 0.042 | 
UCCUGGAACAGCUUGCAUAGUAUUUAGCUA | 0.000658 ± 0.01 | 0.00179 ± 0.0023 | 0.000408 ± 0.02 | 
UCCUCCUACAGCUUGCAUAGUUUUUAGAUA | 0.00103 ± 0.0055 | 0.00341 ± 0.0022 | 0.000481 ± 0.013 | 
UCCUGCUACAGCUUGGUAAGUAUUUAGUAA | 0.00122 ± 0.0049 | 0.00104 ± 0.0066 | 0.000382 ± 0.015 | 
UCCUGGAUGUCGAUGCAUAGUAUUAACUUA | 0.000135 ± 0.036 | 0.00017 ± 0.018 | 0.00011 ± 0.071 | 
UCCUGGAUCAGCUUGCAUUCUAUUUAGAAA | 0.000229 ± 0.024 | 0.00122 ± 0.0032 | 0.000264 ± 0.023 | 
UCCUGGAACACCUUGCAUACUAUUUAGUUA | 0.000705 ± 0.0086 | 0.00273 ± 0.002 | 0.000442 ± 0.015 | 
UCCUGGAUGAGCUUGCAUAGUAUAUUAGUUA | 0.00303 ± 0.0034 | 0.00346 ± 0.0058 | 0.00163 ± 0.0066 | 
UCCUGGAACAGCUUGCAUAGUAUUUAUGUUA | 0.00295 ± 0.0035 | 0.0035 ± 0.002 | 0.0019 ± 0.007 | 
UCCUGGUACAGGUUGCAUAGUAUUUAGAUA | 0.00249 ± 0.0035 | 0.00271 ± 0.0024 | 0.000451 ± 0.02 | 
UCCUGGUACAGCUUGCAUAGUUAUUAGUAA | 0.00164 ± 0.0042 | 0.00807 ± 0.0043 | 0.00165 ± 0.0068 | 
UCCUGGAACAGCUUGCCAUAGUAUUUAGUUA | 0.00159 ± 0.0037 | 0.0042 ± 0.0019 | 0.000655 ± 0.011 | 
UCCUGGAUCUGCUUGCAUAGUAUUUAGAUA | 0.00202 ± 0.0034 | 0.00401 ± 0.0022 | 0.00041 ± 0.02 | 
UCCUGCUAGAGCUUGCAUAGUAUUUAGAAA | 0.00127 ± 0.005 | 0.00419 ± 0.0022 | < 0.0001 | 
UCCUGGAACAGCUUGCAUUGUAUUUACAAA | 0.000807 ± 0.007 | 0.00227 ± 0.0031 | 0.00036 ± 0.022 | 
UCCUGGAACAGCUUGCAUAGUUUUUAGAUA | 0.00126 ± 0.0057 | 0.00205 ± 0.0016 | 0.000139 ± 0.02 | 
UCCUGCUACAGCUUGCAUAGUAUUUUGAUA | 0.00109 ± 0.0056 | 0.00307 ± 0.0023 | 0.000509 ± 0.011 | 
UCCUGCUACAGCUUGCAUAGAAUUUUGUUA | 0.00145 ± 0.0056 | 0.00457 ± 0.0019 | 0.00041 ± 0.018 | 
UCCUGGAUGAGCUUGCUUAGUAUUAAGUUA | 0.00168 ± 0.0043 | 0.00314 ± 0.0031 | 0.00115 ± 0.0067 | 
UCCUGGUACUGCUUGCAUAGUAUUUACUUA | 0.00118 ± 0.0065 | 0.00185 ± 0.0033 | 0.000565 ± 0.014 | 
UCCUGCUAGAGCUUGCAUAGUAUUUAGUAA | 0.00257 ± 0.0029 | 0.00419 ± 0.0014 | 0.00037 ± 0.014 | 
UCCUGGAUGAGCUUGCAUAGUAAUUAGAUA | 0.00109 ± 0.0063 | 0.00341 ± 0.0028 | 0.000614 ± 0.01 | 
UCCUCCUACACCUUGCAUAGUAUUUACAAA | 0.00179 ± 0.0035 | 0.00304 ± 0.0025 | 0.00039 ± 0.018 | 
UCCUGGAUGUGCUUGCAAAGUAUUUUGUUA | 0.00226 ± 0.0038 | 0.000977 ± 0.0043 | < 0.0001 | 
UCCUGGAACAGCUUGCAUUGUAUUUAGAAA | 0.00111 ± 0.0057 | 0.00376 ± 0.0021 | 0.000134 ± 0.054 | 
UCCUGGAACAGCUUGCAUAGUAUUUAAUUA | 0.00167 ± 0.0055 | 0.00345 ± 0.0024 | 0.000675 ± 0.018 | 

Sequence | pre-steady-state target cleavage rate [1, 3] | pre-steady-state target cleavage rate [2, 4] | pre-steady-state target cleavage rate [2, 5] | pre-steady-state target cleavage rate [1, 6]
UCCUGCUACAGCUUGCAUAGUAUUUUAGUUA |  | 0.00822 ± 0.0026 | 0.000505 ± 0.018 | 0.283 ± 0.023
UCCUGGAACAGCUUGCAUAGUAUAAUCAAA | 0.00145 ± 0.0046 | 0.00171 ± 0.0031 | 0.000487 ± 0.017 | 
UCCUCCUACAGCAUGCAUAGUAUUUAGAUA | 0.0025 ± 0.0031 | 0.00452 ± 0.0019 | 0.000264 ± 0.022 | 
UCCUGGAUCAGCUUGCAAAGUAUUUACAAA | 0.00112 ± 0.0066 | 0.00563 ± 0.0037 | 0.000455 ± 0.017 | 
UCCUGCUACAGCUUGCAUAGAAUAUAGUUA | 0.00128 ± 0.0043 | 0.00332 ± 0.0022 | 0.000392 ± 0.015 | 
UCCUGGUACAGCUUGCAUAGGAUUUAGUUA | 0.00231 ± 0.0037 | 0.00178 ± 0.0033 | 0.000541 ± 0.016 | 
UCCUGGAACAGCUUGCAUAGUAAUUACUUA | 0.000935 ± 0.0076 | 0.000707 ± 0.0089 | 0.00059 ± 0.013 | 
UCCUGCUACAGCUUGCAUAGUAUAUAGUAA | 0.00109 ± 0.0048 | 0.00354 ± 0.0018 | 0.000367 ± 0.012 | 
UCCUGGAUGAGCUUGGAUAGUAUUUUGUUA | 0.00143 ± 0.0044 | 0.00108 ± 0.0062 | 0.000947 ± 0.0099 | 
UCCUGGAUGUGCUUGCAUACUAUAUAGUUA | 0.000909 ± 0.0079 | 0.000795 ± 0.0056 | 0.00025 ± 0.042 | 
UCCUGGAUCAGCUUGCAUAGUAUAAUGUAA | 0.00148 ± 0.004 | 0.00114 ± 0.0039 | 0.00011 ± 0.038 | 
UCCUGCUACAGCUUGCAUAGUUUUUACUUA | 0.0014 ± 0.0047 | 0.000718 ± 0.0081 | 0.000254 ± 0.027 | 
UCCUGGAACUCGUUGCAUAGUAUUUAGUUA | 0.00417 ± 0.0024 | 0.00531 ± 0.0017 | < 0.0001 | 0.154 ± 0.018
UCCUGGAUGUGCUUGCAUAGUAUUUACUAA | 0.000836 ± 0.0065 | 0.146 ± 0.073 | 0.000975 ± 0.0098 | 0.00483 ± 0.0049
UCCUGGAUGAGCUUGCAAAGUAAUUAGUUA | 0.00244 ± 0.0041 | 0.00431 ± 0.0022 | 0.000437 ± 0.019 | 0.0348 ± 0.0091
UCCUGGAUGAGGCUUGCAUAGUAUUUAGUUA | 0.0125 ± 0.0036 | 0.0185 ± 0.0065 | 0.000901 ± 0.011 | 0.186 ± 0.018
UCCUGGUACACCUUGCAUAGUAUAUAGUUA | 0.00256 ± 0.004 | 0.00195 ± 0.0034 | 0.000298 ± 0.025 | 0.311 ± 0.059
UCCUGCUACAGCUAGCAUACUAUUUAGUUA | 0.0037 ± 0.0024 | 0.0063 ± 0.0019 | 0.000906 ± 0.0081 | 0.112 ± 0.018
UCCUGGAUCAGCUUGCAUAGUAUUUUCUUA | 0.00144 ± 0.0038 | 0.00156 ± 0.0022 | 0.00033 ± 0.02 | 0.0452 ± 0.013
UCCUGGAUGUCGUUGCAUCAGUAUUUAGUUA | 0.000683 ± 0.0082 | 0.000213 ± 0.022 | 0.000185 ± 0.038 | 0.00144 ± 0.0077
UCCUGGAUGAGCUUGUCAUAGUAUUUAGUUA | 0.00206 ± 0.0044 | 0.00721 ± 0.0027 | 0.00174 ± 0.0059 | 0.0971 ± 0.013
UCCUGGAACAGGUUGCAUAGAAUUUAGUUA | 0.0038 ± 0.002 | 0.00258 ± 0.0014 | 0.000268 ± 0.033 | 0.0524 ± 0.011
UCCUGGAACAGCUUGGAUAGUAUUAAGUUA | 0.00183 ± 0.004 | 0.00405 ± 0.0034 | 0.000995 ± 0.0093 | 0.186 ± 0.033
UCCUGCUACAGCUUGCAUACUAUAUAGUUA | 0.00182 ± 0.004 | 0.00148 ± 0.0028 | 0.000187 ± 0.021 | 0.0515 ± 0.015
UCCUGGUACAGCUUGCAUAGUGAUUUAGUUA | 0.00917 ± 0.0038 | 0.000852 ± 0.0071 | 0.00093 ± 0.012 | 0.0336 ± 0.01
UCCUCCUACAGCUUGCAUACAAUUUAGUUA | 0.00218 ± 0.0028 | 0.00233 ± 0.0029 | 0.000743 ± 0.0066 | 0.00727 ± 0.0046
